Results taken from paper doi:10.1101/2025.11.17.688470.

Protein sequences, listed by entry. Tags and fused reporters are not part of them.
UniProt Q07955: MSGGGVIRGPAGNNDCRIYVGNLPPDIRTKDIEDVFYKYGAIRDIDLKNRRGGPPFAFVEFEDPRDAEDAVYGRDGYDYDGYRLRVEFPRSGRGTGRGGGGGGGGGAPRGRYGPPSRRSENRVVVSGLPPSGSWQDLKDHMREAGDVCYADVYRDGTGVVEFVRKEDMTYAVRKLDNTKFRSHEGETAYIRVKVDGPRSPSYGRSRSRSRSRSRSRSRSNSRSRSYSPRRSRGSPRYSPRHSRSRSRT
UniProt P78362: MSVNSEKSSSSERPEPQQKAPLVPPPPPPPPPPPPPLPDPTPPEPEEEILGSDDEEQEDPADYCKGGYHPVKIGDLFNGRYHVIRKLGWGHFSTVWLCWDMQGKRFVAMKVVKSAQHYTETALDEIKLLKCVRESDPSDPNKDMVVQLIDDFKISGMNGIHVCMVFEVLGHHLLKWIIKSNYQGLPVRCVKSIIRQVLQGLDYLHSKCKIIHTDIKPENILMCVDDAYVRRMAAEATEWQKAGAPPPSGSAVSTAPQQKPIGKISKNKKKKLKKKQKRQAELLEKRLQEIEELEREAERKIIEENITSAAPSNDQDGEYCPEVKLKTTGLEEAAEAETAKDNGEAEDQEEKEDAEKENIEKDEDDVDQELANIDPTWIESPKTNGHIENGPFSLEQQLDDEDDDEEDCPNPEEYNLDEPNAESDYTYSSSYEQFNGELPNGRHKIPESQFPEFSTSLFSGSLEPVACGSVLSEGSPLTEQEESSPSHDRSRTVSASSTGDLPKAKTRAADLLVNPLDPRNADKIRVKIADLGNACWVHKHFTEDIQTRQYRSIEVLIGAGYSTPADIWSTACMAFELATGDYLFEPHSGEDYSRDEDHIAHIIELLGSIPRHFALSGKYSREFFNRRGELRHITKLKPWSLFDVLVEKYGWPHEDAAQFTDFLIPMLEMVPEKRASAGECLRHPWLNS
UniProt Q9UPE1: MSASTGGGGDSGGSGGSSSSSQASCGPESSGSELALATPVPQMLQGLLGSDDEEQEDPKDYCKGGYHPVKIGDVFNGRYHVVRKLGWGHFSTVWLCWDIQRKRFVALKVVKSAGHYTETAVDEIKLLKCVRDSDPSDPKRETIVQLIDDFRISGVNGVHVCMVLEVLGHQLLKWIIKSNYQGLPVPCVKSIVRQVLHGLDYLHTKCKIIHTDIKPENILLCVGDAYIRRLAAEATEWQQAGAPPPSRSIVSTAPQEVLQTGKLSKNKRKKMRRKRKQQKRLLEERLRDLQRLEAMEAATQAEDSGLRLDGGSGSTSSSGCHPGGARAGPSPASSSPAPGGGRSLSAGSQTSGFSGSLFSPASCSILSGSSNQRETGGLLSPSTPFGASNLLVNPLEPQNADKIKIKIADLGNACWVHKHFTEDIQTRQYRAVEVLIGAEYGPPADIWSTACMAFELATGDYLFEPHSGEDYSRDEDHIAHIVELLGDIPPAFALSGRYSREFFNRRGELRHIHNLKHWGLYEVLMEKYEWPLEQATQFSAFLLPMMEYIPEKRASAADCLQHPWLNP
UniProt O75494: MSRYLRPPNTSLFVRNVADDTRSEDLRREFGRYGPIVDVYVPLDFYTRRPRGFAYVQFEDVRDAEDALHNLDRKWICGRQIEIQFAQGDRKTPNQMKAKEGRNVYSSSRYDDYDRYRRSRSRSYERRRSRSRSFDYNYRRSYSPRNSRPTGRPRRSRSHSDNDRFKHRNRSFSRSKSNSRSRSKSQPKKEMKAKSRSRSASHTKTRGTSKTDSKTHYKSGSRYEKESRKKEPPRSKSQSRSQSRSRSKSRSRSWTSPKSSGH

Molecular target: GFP-SRSF1 wild type (Serine/arginine-rich splicing factor 1) (UniProt Q07955)
Assay: affinity purification with mass spectrometry

Row | binding | Substance
1 | binds | SRPK2 (from UniProt P78362 1-688) (enzyme)
2 | binds | SRPK3 (from UniProt Q9UPE1 1-567) (enzyme)
3 | binds | SRSF10 (from UniProt O75494 1-262)

No constants are given. Whether binding was seen depends on the method and setting. Binding seen in cells or lysates may run through a third protein. A yes stands for co-enrichment or nearness to the bait. Other partners may have been found.
